Measured data: PubChem BioAssay AID1671195 (Yale University, 2021)

Test: 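Regulators of LDL receptor activity judged by labelled LDL uptake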 (primary screen)
Cells: human Huh7 hepatoma cells
Reagents: siRNA pool against human genes, 18 nM
Duration: about 2 to 2.5 days of knockdown, then 8 h LDL uptake
Treatment: DiI-labelled LDL at 30 µg/ml for 8 h, in lipoprotein-deficient serum medium
Measurement: 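Fluorescent LDL signal imaged in cells, scaled to the plate median, robust z-score for each replicate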
Direction: robust z-score: higher = more LDL uptake after knockdown
Call rule: 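Active when two or more replicates show a robust z-score above 2 or below -2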
The whole screen tested about 22,000 reagents; shown is a random part of them. About 1,510 of them (6.9%) count as active. 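Active includes knockdowns raising or lowering LDL uptake; positive z-scores mean more uptake, negative mean less.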

| Target gene | robust z-score, replicate 1 | robust z-score, replicate 2 | robust z-score, replicate 3 | outcome |
| --- | --- | --- | --- | --- |
| SYP | -0.793 | -0.475 | -0.593 | inactive |
| ABHD17A | 0.0108 | -0.386 | -0.782 | inactive |
| OR52A5 | -0.964 | -0.187 | -0.434 | inactive |
| PRF1 | -1.77 | 0.29 | -1.45 | inactive |
| APBA2 | 0.429 | 0.382 | 0.607 | inactive |
| BCL7C | 0.21 | -0.407 | 0.858 | inactive |
| LRRC3 | -2.42 | -2.38 | -2.08 | active |
| UQCC2 | 0.602 | 1.06 | 0.411 | inactive |
| POLQ | -1.05 | -0.973 | -0.753 | inactive |
| SLC23A3 | 0.493 | 0.0138 | 0.0247 | inactive |
| NSA2 | -1.71 | 0.318 | -0.00469 | inactive |
| SYNGR2 | 0.172 | 0.695 | 0.607 | inactive |
| AP3D1 | 1.51 | 0.13 | 0.536 | inactive |
| FLJ42258 (retired record) | -0.247 | -0.0963 | -0.852 | inactive |
| YWHAQ | 2.49 | 1.32 | 2.21 | active |
| HOXD4 | -0.895 | -1.2 | -0.737 | inactive |
| LOC440266 (retired record) | -1.12 | 0.834 | 0.418 | inactive |
| TRMT2B | 1.01 | 0.373 | 0.54 | inactive |
| LOC400969 (retired record) | 2.1 | 1.62 | 2.03 | active |
| HTRA2 | -0.503 | -0.612 | -0.288 | inactive |
| STIM2 | -0.727 | 0.0343 | -0.351 | inactive |
| TIMP1 | 0.0396 | 1.3 | 0.211 | inactive |
| GET4 | -1.76 | -1.18 | -1.25 | inactive |
| SYNDIG1 | 0.0347 | 0.449 | 0.167 | inactive |
| ARHGAP33 | -0.0199 | -0.171 | 0.0781 | inactive |
| CYP19A1 | -0.275 | -0.0963 | -0.0675 | inactive |
| CZ1P-ASNS | 1.78 | 0.748 | 1.04 | inactive |
| LOC144762 (retired record) | 0.315 | 0.177 | 0.381 | inactive |
| HNF4A | -0.539 | -0.862 | -1.54 | inactive |
| FAM8A1 | -1.13 | -2.76 | -1.44 | inactive |
| SERP2 | 0.436 | 0.537 | 0.887 | inactive |
| DYNC1I2 | -0.246 | 0.378 | -0.619 | inactive |
| TRIM51G | -1.65 | -1.45 | -1.64 | inactive |
| PLA2G1B | -0.923 | -0.808 | -0.964 | inactive |
| LOC400748 | -0.188 | -0.643 | -0.211 | inactive |
| PCDHB14 | -1.28 | -1.14 | -1.24 | inactive |
| EXD2 | -0.363 | 0.0542 | -0.235 | inactive |
| HADHB | -0.228 | -0.586 | 0.0769 | inactive |
| NGLY1 | -0.738 | -0.0829 | -2.1 | inactive |
| FGF10 | 0.0744 | -0.617 | -0.48 | inactive |
| ARL1 | 1.11 | 0.803 | 0.677 | inactive |
| OR10AG1 | -1.43 | -1.19 | -1.21 | inactive |
| NUP88 | -0.886 | -0.377 | -1.12 | inactive |
| UCP2 | -0.831 | -0.323 | -0.397 | inactive |
| RILPL1 | 0.647 | 0.44 | 0.506 | inactive |
| AGRP | 1.03 | -0.46 | 0.145 | inactive |
| CHAC2 | -0.445 | -0.203 | -0.414 | inactive |
| DNAAF5 | -0.199 | -0.193 | 0.136 | inactive |
| EID1 | -1.47 | -0.682 | -0.899 | inactive |
| PLOD2 | -0.852 | -0.692 | -0.605 | inactive |
| LOC340913 (retired record) | 1.32 | 0.497 | 0.363 | inactive |
| TNRC6A | 0.834 | -0.0783 | 0.302 | inactive |
| LCE1E | -0.602 | -0.763 | -1.27 | inactive |
| CPA4 | -1.19 | -1.23 | -1.25 | inactive |
| LOC402066 (retired record) | -0.945 | 0.605 | -0.33 | inactive |
| DAGLA | -0.923 | 0.065 | -0.93 | inactive |
| FAM13C | 0.431 | 0.332 | 0.603 | inactive |
| MRM1 | -0.316 | 0.0974 | -0.766 | inactive |
| MTFP1 | -1.4 | 0.0889 | -1.05 | inactive |
| LOC389202 (retired record) | -0.492 | -0.32 | -0.526 | inactive |
| FAM167B | 0.38 | 0.801 | 0.453 | inactive |
| UTP6 | -0.55 | -1.64 | -0.844 | inactive |
| GRSF1 | 0.462 | 0.994 | 0.72 | inactive |
| LOC441344 (retired record) | 0.523 | -0.639 | -0.61 | inactive |
| LOC100287740 | -0.421 | -0.619 | -0.993 | inactive |
| LINC00636 | 1.1 | 1.24 | 1.25 | inactive |
| REEP1 | -0.336 | -0.594 | -0.529 | inactive |
| MMP11 | -0.254 | 0.222 | 1.3 | inactive |

A stretch from the list above, as a working copy:
| Target gene | robust z-score, replicate 1 | robust z-score, replicate 2 | robust z-score, replicate 3 | outcome |
| --- | --- | --- | --- | --- |
| LOC400748 | -0.188 | -0.643 | -0.211 | inactive |
| PCDHB14 | -1.28 | -1.14 | -1.24 | inactive |
| EXD2 | -0.363 | 0.0542 | -0.235 | inactive |
| HADHB | -0.228 | -0.586 | 0.0769 | inactive |
| NGLY1 | -0.738 | -0.0829 | -2.1 | inactive |
| FGF10 | 0.0744 | -0.617 | -0.48 | inactive |
| ARL1 | 1.11 | 0.803 | 0.677 | inactive |
| OR10AG1 | -1.43 | -1.19 | -1.21 | inactive |
